From patent US5750506 (dated 1998)

Assay: Boc solid-phase peptide synthesis; Boc-(N^w -tosyl)-arginine PAM resin; HOBt/carbodiimide preactivation
Conditions: whole synthesis, scale 0.5 mmole

D-Arginyl-L-arginyl-L-prolyl-L-(4R-hydroxy)-prolyl-glycyl-L-phenylalanyl-(S-(4-n-hexyl)-phenyl)-cysteine-D-phenylalanyl-L-leucyl-L-arginine
isolated mass: 200 mg
